Measured values: patent EP4659808A2 (Sanofi, dated 2025)
These are yes or no findings as the source states them, for the method shown. In cells and extracts the contact can be indirect. Some entries that bind do so weakly or less than the wild type.

Target: T1, endogenous beta-DG (C2C12 cell lysate; mouse muscle tissue sections) (mouse), Q62165
T1 chain: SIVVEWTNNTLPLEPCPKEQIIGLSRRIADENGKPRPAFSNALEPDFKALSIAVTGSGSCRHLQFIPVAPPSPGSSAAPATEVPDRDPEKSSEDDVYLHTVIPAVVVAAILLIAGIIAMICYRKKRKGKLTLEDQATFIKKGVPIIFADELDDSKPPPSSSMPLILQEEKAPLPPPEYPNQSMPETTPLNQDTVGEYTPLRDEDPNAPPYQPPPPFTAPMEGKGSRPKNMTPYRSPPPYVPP
Experiment: co-immunoprecipitation from C2C12 lysate, Western blot
Details: remark: other sources report otherwise

binding: binds
B1: endogenous alpha-DG from C2C12 cell lysates, Q62165 28-651 (receptor, UniProt Q62165 28-651, looked up)
chain: HWPSEPSEAVRDWKNQLEASMHSVLSDFQEAVPTVVGIPDGTAVVGRSFRVSIPTDLIASSGEIIKVSAAGKEALPSWLHWDPHSHILEGLPLDTDKGVHYISVSAARLGANGSHVPQTSSVFSIEVYPEDHNEPQSVRAASSDPGEVVPSACAADEPVTVLTVILDADLTKMTPKQRIDLLNRMQSFSEVELHNMKLVPVVNNRLFDMSAFMAGPGNAKKVVENGALLSWKLGCSLNQNSVPDIRGVETPAREGAMSAQLGYPVVGWHIANKKPTLPKRLRRQIHATPTPVTAIGPPTTAIQEPPSRIVPTPTSPAIAPPTETMAPPVRDPVPGKPTVTIRTRGAIIQTPTLGPIQPTRVSEAGTTVPGQIRPTLTIPGYVEPTAVITPPTTTTKKPRVSTPKPATPSTDSSTTTTRRPTKKPRTPRPVPRVTTKAPITRLETASPPTRIRTTTSGVPRGGEPNQRPELKNHIDRVDAWVGTYFEVKIPSDTFYDNEDTTTDKLKLTLKLREQQLVGEKSWVQFNSNSQLMYGLPDSSHVGKHEYFMHATDKGGLSAVDAFEIHVHKRPQGDKAPARFKARLAGDPAPVVNDIHKKIALVKKLAFAFGDRNCSSITLQNITRG
